In article PMC6599640 (Pharmaceutical research, 2018) one finds viability and Papp data, which are given here for one compound.

The structures appear in SMILES notation.

A short description of data set [1]: MTT viability assay on SMI microtissues after drug exposure. The settings on record: human, SMI (small intestinal) microtissues. (In general: Tetrazolium assays rely on reduction of a dye to a coloured formazan, in cell work by metabolically active cells.)
The nature of data set [2]: in vitro. The settings on record: human, Caco-2.

On to `CC(C)NCC(O)COc1ccc(CC(N)=O)cc1` (stereo not shown) [Atenolol], for which, in data set [1], the viability at 96 h, 1 µM came out at 108%; the viability at 96 h, 10 µM came to 107%; the viability at 96 h, 100 µM stood at 102%. The Papp at 2 h, 10 μM in data set [2] is 0.3 ×10⁻⁶ cm/s.

Broadly, the viability is a read-out of living cells in per cent, often relative to untreated cells. Broadly, the Papp is a coefficient for how fast a substance crosses the barrier. A lower Papp goes with poor permeation.
